Article PMC7819943, “Rice protein-binding microarrays: a tool to detect cis-acting elements near promoter regions in rice”
The other results are listed elsewhere or left out.

Sequences of proteins named here, by UniProt entry; tags and fusion partners are left off.
UniProt Q0JBA9, entry or part of it: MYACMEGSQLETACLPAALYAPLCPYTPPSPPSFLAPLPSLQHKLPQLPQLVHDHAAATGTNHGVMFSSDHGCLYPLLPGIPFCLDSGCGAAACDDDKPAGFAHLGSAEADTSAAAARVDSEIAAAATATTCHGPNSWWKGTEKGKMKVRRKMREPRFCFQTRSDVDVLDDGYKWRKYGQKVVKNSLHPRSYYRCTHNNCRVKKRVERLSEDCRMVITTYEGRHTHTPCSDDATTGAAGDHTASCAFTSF

The sequences below were run against OsWRKY34 (Oryza sativa, UniProt Q0JBA9 1-250) (assay: protein-binding microarray (RPBM); PBS, 2% BSA, 51.3 ng/ul salmon testes DNA, 50 uM zinc acetate, 200 nM TF, 25 C, 1 h; high values mean tight binding). Details: protein: recombinant; tags: N-terminal polyhistidine and DsRed monomer fusion (pET32a); label: CyDye5-dUTP incorporated in the synthesized complementary strand; 3' TTTTT single-stranded linker to array surface; dsDNA, one strand shown.
Outline: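 Ni–NTA purification followed expression in E. coli BL21-CodonPlus of transcription factors fused N-terminally to a polyhistidine tag and DsRed. At 200 nM in PBS with 2% BSA, salmon testes DNA and 50 µM zinc acetate, the protein was incubated for 1 h at 25 °C with a custom Agilent array that had been primer-extended with Cy5-dUTP and blocked with 2% BSA. After washing, the array was read on an Axon 4000B scanner. The binding signal is per-feature fluorescence intensity in arbitrary units.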

| Sequence | binding signal |
| --- | --- |
| GATAACCGTAGGCCGTAGCCGCGTCCATCTCGCCCTCGCCCGGAGTCACCTAGTGCAG | 8630 fluorescence intensity (a.u.) |
| TTTATTTTTCCTTTAAGTTTCCATATGTTGTTTATTTAACCGGAGTCACCTAGTGCAG | 8260 fluorescence intensity (a.u.) |
| GCCACCGCCGCCGCATCTCCTCATTCTTCCCGCCGCAGCTCGGAGTCACCTAGTGCAG | 8400 fluorescence intensity (a.u.) |
| AAAAAAATATATATGGCGGTGTTGACTTGGTTTTGGTCTTCGGAGTCACCTAGTGCAG | 11800 fluorescence intensity (a.u.) |
| GGTTTGGATGGCTGATTTGTGTAAAGTTGGGCTAGAGTTGCGGAGTCACCTAGTGCAG | 9020 fluorescence intensity (a.u.) |
| GAGTCACTGGGTTCTACACCACTCAGTCCAATCAAACCAACGGAGTCACCTAGTGCAG | 8830 fluorescence intensity (a.u.) |
| TTCATTTACGGCTTTACCATTTTCCATTTTTTTTCTTAGACGGAGTCACCTAGTGCAG | 8130 fluorescence intensity (a.u.) |
| ACCTTAACTCTCGTTCAACTAACTTTTGCATCTACTGAATCGGAGTCACCTAGTGCAG | 8440 fluorescence intensity (a.u.) |
| GAGGAGACGCTGGGACTGGGTGGGTACCCTCCGCCGCCGGCGGAGTCACCTAGTGCAG | 10000 fluorescence intensity (a.u.) |
| CCCCTCGCCTACCCACAGCTGTTCACATCACTCCCGCTCCCGGAGTCACCTAGTGCAG | 8120 fluorescence intensity (a.u.) |
| TCCTTTTGTGCTGAACTTGTTTTGTTGGTACTTGACACAACGGAGTCACCTAGTGCAG | 10600 fluorescence intensity (a.u.) |
| AATTGACAATGTCTCACCATTCGCCTACTCTTAAGCACCACGGAGTCACCTAGTGCAG | 9440 fluorescence intensity (a.u.) |
| CTATTCGTGTTGGAGGAATACTGTTTTACGATCCGGTTTCCGGAGTCACCTAGTGCAG | 8040 fluorescence intensity (a.u.) |
| TTTACTAAACTTCAGAAATTTTATGCATTTATCCTTTCATCGGAGTCACCTAGTGCAG | 8280 fluorescence intensity (a.u.) |
| CAGAGGGTTATTTGTGTGCCTTTTGGAAAGTTTAGGGTTTCGGAGTCACCTAGTGCAG | 10200 fluorescence intensity (a.u.) |
| CTCTCCCTCCGCTCTCTCGCCGCCGTCGCCGCCACGCGCTCGGAGTCACCTAGTGCAG | 8950 fluorescence intensity (a.u.) |
| ATTTGTTAGTCTTCAATTTTTCTCTTTTAATTTTTCTTTTCGGAGTCACCTAGTGCAG | 11200 fluorescence intensity (a.u.) |
| GCACACCTTCCCTTGATGTCAGCTTTGATAGTGTTGAGGTCGGAGTCACCTAGTGCAG | 9680 fluorescence intensity (a.u.) |
| TAGTATAGCACTCTGCAGTTTTCCCCGATCGACGACGTCGCGGAGTCACCTAGTGCAG | 8110 fluorescence intensity (a.u.) |
| GTAGCTCTGTAAACCCCGCGTGTCGGTGTCGGTGGGCGGGCGGAGTCACCTAGTGCAG | 12900 fluorescence intensity (a.u.) |
| TAGGGAGGGTTGTGGGGAGGGGAGCTGTGGCCGCAATGTCCGGAGTCACCTAGTGCAG | 19400 fluorescence intensity (a.u.) |
| TCAAACCAGGGACTTTGCGTGGAGGAGAGGGGCGGCGGGGCGGAGTCACCTAGTGCAG | 15100 fluorescence intensity (a.u.) |
| GTTGCAGGCGCCTATGTTTGTACAGTGTTTCAAGAAAAAACGGAGTCACCTAGTGCAG | 9900 fluorescence intensity (a.u.) |

Part of the list above, bar-delimited.
Sequence | binding signal
GCCACCGCCGCCGCATCTCCTCATTCTTCCCGCCGCAGCTCGGAGTCACCTAGTGCAG | 8400 fluorescence intensity (a.u.)
AAAAAAATATATATGGCGGTGTTGACTTGGTTTTGGTCTTCGGAGTCACCTAGTGCAG | 11800 fluorescence intensity (a.u.)
